Data taken from patent US20160272721A1.
These are yes or no findings as the source states them, for the method shown. Some binding calls cover weakened binding; strength is not graded here.

Legend:
[1] = target: T1, AIMP2-DX2 protein (human) (UniProt Q13155); assay: Western blot of H460 cell lysate (FIG. 18)
T1 sequence: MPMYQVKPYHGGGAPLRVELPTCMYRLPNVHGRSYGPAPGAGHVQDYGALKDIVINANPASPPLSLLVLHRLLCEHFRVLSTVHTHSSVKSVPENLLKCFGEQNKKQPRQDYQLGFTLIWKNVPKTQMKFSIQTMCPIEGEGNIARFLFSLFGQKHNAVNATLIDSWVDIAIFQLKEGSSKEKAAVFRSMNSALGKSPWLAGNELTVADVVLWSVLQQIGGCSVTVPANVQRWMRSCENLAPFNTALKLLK

[2] = target: T1, AIMP2-DX2 protein (human); assay: Western blot of SW460 cell lysate with periplasmic extract as primary antibody
[3] = target: T1, AIMP2-DX2 protein (human); assay: Western blot of H460 lysates after siRNA knock-down of AIMP2-DX2 (FIG. 19a)
[4] = target: T1, AIMP2-DX2 protein (human); assay: Western blot of H460 cell lysates (FIG. 22)

Measured: binding

B1: H5 Fab (Fab, V domains shown)
VH: QEQLVESGGGLVTPGGTLTLTCTASGFTISSYHMTWVRQAPGKGLEWIGVISNSGGTSYANWAKGRFTISKTSTTVDLKITSPTTEDTATYFCVRGVPGINSNLWGQGTLVTISS
VL: AQVLTQTPSSVSAAVGGTVTINCQSSQSVYSGNWLAWYQQKPGQPPKLLIYSTSTLASGVPSRFKGSGSGTQFTLTVSDLECDDAATYYCAGDYDGYKNAFGGGTKVVVKR
binds: all assays above
